{"source": "PubChem BioAssay AID1259254 | NCATS – 2017", "assay": "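Gene knock-downs that lead to re-replication, shown by excess G2 DNA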 (primary screen)", "system": "human HCT116 colorectal cancer cells", "knock-down reagent": "single siRNA against human genes", "duration": "3 days", "measurement": "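Nuclei stained with Hoechst and imaged; cell-cycle phase assigned by DNA content; G2 share scaled per plate, non-targeting siRNA 0%, GMNN siRNA 100%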", "scale": "G2 robust z-score and G2 cells, % of GMNN control: higher = more G2 cells, more excess DNA replication", "hit rule": "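Active siRNAs have a G2 robust z of 5 or more median absolute deviations over the median, which in these data means about 38% or higher of GMNN control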", "note": "The deposit covers about 59,000 reagents; this is a part drawn at random. About 1,550 of all reagents (2.6%) count as active. 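G2 share is only a proxy for re-replication; each gene was hit by three separate siRNAs, and active genes were retested.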 Reagents against one gene are numbered here. Not all columns of the deposit are shown. No sequences are given here. Not given: the amount of reagent."}
{"Gene": "SH3GLB2", "siRNA no.": 1, "G2 robust z-score": -1.17, "G2 cells, % of GMNN control": -5.25, "activity call": "inactive"}
{"Gene": "SH3GLB2", "siRNA no.": 2, "G2 robust z-score": -1.14, "G2 cells, % of GMNN control": -5.02, "activity call": "inactive"}
{"Gene": "SH3GLB2", "siRNA no.": 3, "G2 robust z-score": 1.42, "G2 cells, % of GMNN control": 13, "activity call": "inactive"}
{"Gene": "PRPF40A", "siRNA no.": 1, "G2 robust z-score": -0.52, "G2 cells, % of GMNN control": -0.691, "activity call": "inactive"}
{"Gene": "PRPF40A", "siRNA no.": 2, "G2 robust z-score": 5.36, "G2 cells, % of GMNN control": 40.7, "activity call": "active"}
{"Gene": "PRPF40A", "siRNA no.": 3, "G2 robust z-score": -0.834, "G2 cells, % of GMNN control": -2.9, "activity call": "inactive"}
{"Gene": "PDE11A", "siRNA no.": 1, "G2 robust z-score": -0.767, "G2 cells, % of GMNN control": -2.43, "activity call": "inactive"}
{"Gene": "PDE11A", "siRNA no.": 2, "G2 robust z-score": 1.62, "G2 cells, % of GMNN control": 14.4, "activity call": "inactive"}
{"Gene": "PDE11A", "siRNA no.": 3, "G2 robust z-score": -0.00657, "G2 cells, % of GMNN control": 2.92, "activity call": "inactive"}
{"Gene": "CRIP2", "siRNA no.": 1, "G2 robust z-score": -1.24, "G2 cells, % of GMNN control": -5.74, "activity call": "inactive"}
{"Gene": "CRIP2", "siRNA no.": 2, "G2 robust z-score": -0.729, "G2 cells, % of GMNN control": -2.16, "activity call": "inactive"}
{"Gene": "CRIP2", "siRNA no.": 3, "G2 robust z-score": 0.741, "G2 cells, % of GMNN control": 8.18, "activity call": "inactive"}
{"Gene": "TMED6", "siRNA no.": 1, "G2 robust z-score": -0.776, "G2 cells, % of GMNN control": -2.49, "activity call": "inactive"}
{"Gene": "TMED6", "siRNA no.": 2, "G2 robust z-score": -0.471, "G2 cells, % of GMNN control": -0.349, "activity call": "inactive"}
{"Gene": "TMED6", "siRNA no.": 3, "G2 robust z-score": 0.874, "G2 cells, % of GMNN control": 9.12, "activity call": "inactive"}
{"Gene": "PDE6H", "siRNA no.": 1, "G2 robust z-score": 3.4, "G2 cells, % of GMNN control": 26.9, "activity call": "inactive"}
{"Gene": "PDE6H", "siRNA no.": 2, "G2 robust z-score": -0.465, "G2 cells, % of GMNN control": -0.301, "activity call": "inactive"}
{"Gene": "PDE6H", "siRNA no.": 3, "G2 robust z-score": -0.0962, "G2 cells, % of GMNN control": 2.29, "activity call": "inactive"}
